Some of the results follow.
What was measured:
Assay in all cases: glycan array binding signal (z-score within array); higher = stronger binding
Conditions in all cases: glycan notation: IUPAC condensed, linker removed
[1] = molecular target: Neu5Ac(a2-6)Gal(b1-3)GlcNAc(b1-3)[Gal(b1-4)GlcNAc(b1-6)]Gal(b1-4)Glc
How it was run: (§1)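 The binding signal is a Z-score computed within each array. Data were drawn from 3228 arrays in the Consortium for Functional Glycomics database, restricted to those with a known protein sequence. Scores were averaged over arrays of the same protein sequence at different concentrations or buffers, and over linkers, and negative values can be taken as non-binding.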

Neu5Ac(a2-6)Gal(b1-4)Glc = molecular target: Neu5Ac(a2-6)Gal(b1-4)Glc
How it was run: as §1

[2] = molecular target: Neu5Ac(a2-6)Gal(b1-4)GlcNAc
How it was run: as §1

[3] = molecular target: Neu5Ac(a2-6)Gal(b1-4)GlcNAc(b1-2)Man
How it was run: as §1

[4] = molecular target: Neu5Ac(a2-6)Gal(b1-4)GlcNAc(b1-2)Man(a1-3)Man(b1-4)GlcNAc(b1-4)GlcNAc
How it was run: as §1

[5] = molecular target: Neu5Ac(a2-6)Gal(b1-4)GlcNAc(b1-2)Man(a1-3)[Gal(b1-4)GlcNAc(b1-2)Man(a1-6)]Man(b1-4)GlcNAc(b1-4)GlcNAc
How it was run: as §1

[6] = molecular target: Neu5Ac(a2-6)Gal(b1-4)GlcNAc(b1-2)Man(a1-3)[GlcNAc(b1-2)Man(a1-6)]Man(b1-4)GlcNAc(b1-4)GlcNAc
How it was run: as §1

[7] = molecular target: Neu5Ac(a2-6)Gal(b1-4)GlcNAc(b1-2)Man(a1-3)[GlcNAc(b1-4)][Neu5Ac(a2-6)Gal(b1-4)GlcNAc(b1-2)Man(a1-6)]Man(b1-4)GlcNAc(b1-4)GlcNAc
How it was run: as §1

[8] = molecular target: Neu5Ac(a2-6)Gal(b1-4)GlcNAc(b1-2)Man(a1-3)[Man(a1-6)]Man(b1-4)GlcNAc(b1-4)GlcNAc
How it was run: as §1

[9] = molecular target: Neu5Ac(a2-6)Gal(b1-4)GlcNAc(b1-2)Man(a1-3)[Neu5Ac(a2-3)Gal(b1-4)GlcNAc(b1-2)Man(a1-6)]Man(b1-4)GlcNAc(b1-4)GlcNAc
How it was run: as §1

[10] = molecular target: Neu5Ac(a2-6)Gal(b1-4)GlcNAc(b1-2)Man(a1-3)[Neu5Ac(a2-6)Gal(b1-4)GlcNAc(b1-2)Man(a1-6)]Man(b1-4)GlcNAc(b1-4)GlcNAc
How it was run: as §1

[11] = molecular target: Neu5Ac(a2-6)Gal(b1-4)GlcNAc(b1-2)Man(a1-3)[Neu5Ac(a2-6)Gal(b1-4)GlcNAc(b1-2)Man(a1-6)]Man(b1-4)GlcNAc(b1-4)[Fuc(a1-6)]GlcNAc
How it was run: as §1

[12] = molecular target: Neu5Ac(a2-6)Gal(b1-4)GlcNAc(b1-2)Man(a1-6)Man(b1-4)GlcNAc(b1-4)GlcNAc
How it was run: as §1

[13] = molecular target: Neu5Ac(a2-6)Gal(b1-4)GlcNAc(b1-2)Man(a1-6)[Gal(b1-4)GlcNAc(b1-2)Man(a1-3)]Man(b1-4)GlcNAc(b1-4)GlcNAc
How it was run: as §1

[14] = molecular target: Neu5Ac(a2-6)Gal(b1-4)GlcNAc(b1-2)Man(a1-6)[GlcNAc(b1-2)Man(a1-3)]Man(b1-4)GlcNAc(b1-4)GlcNAc
How it was run: as §1

[15] = molecular target: Neu5Ac(a2-6)Gal(b1-4)GlcNAc(b1-2)Man(a1-6)[Man(a1-3)]Man(b1-4)GlcNAc(b1-4)GlcNAc
How it was run: as §1

[16] = molecular target: Neu5Ac(a2-6)Gal(b1-4)GlcNAc(b1-2)[Neu5Ac(a2-6)Gal(b1-4)GlcNAc(b1-4)]Man(a1-3)[GlcNAc(b1-4)][Neu5Ac(a2-6)Gal(b1-4)GlcNAc(b1-2)[Neu5Ac(a2-6)Gal(b1-4)GlcNAc(b1-6)]Man(a1-6)]Man(b1-4)GlcNAc(b1-4)GlcNAc
How it was run: as §1

[17] = molecular target: Neu5Ac(a2-6)Gal(b1-4)GlcNAc(b1-2)[Neu5Ac(a2-6)Gal(b1-4)GlcNAc(b1-4)]Man(a1-3)[GlcNAc(b1-4)][Neu5Ac(a2-6)Gal(b1-4)GlcNAc(b1-4)Man(a1-6)]Man(b1-4)GlcNAc(b1-4)GlcNAc
How it was run: as §1

[18] = molecular target: Neu5Ac(a2-6)Gal(b1-4)GlcNAc(b1-2)[Neu5Ac(a2-6)Gal(b1-4)GlcNAc(b1-6)]Man(a1-6)[Neu5Ac(a2-6)Gal(b1-4)GlcNAc(b1-2)Man(a1-3)][GlcNAc(b1-4)]Man(b1-4)GlcNAc(b1-4)GlcNAc
How it was run: as §1

[19] = molecular target: Neu5Ac(a2-6)Gal(b1-4)GlcNAc(b1-3)Gal(b1-3)GlcNAc
How it was run: as §1

[20] = molecular target: Neu5Ac(a2-6)Gal(b1-4)GlcNAc(b1-3)Gal(b1-4)GlcNAc
How it was run: as §1

[21] = molecular target: Neu5Ac(a2-6)Gal(b1-4)GlcNAc(b1-3)Gal(b1-4)GlcNAc(b1-2)Man(a1-3)[Neu5Ac(a2-6)Gal(b1-4)GlcNAc(b1-3)Gal(b1-4)GlcNAc(b1-2)Man(a1-6)]GalNAc
How it was run: as §1

[22] = molecular target: Neu5Ac(a2-6)Gal(b1-4)GlcNAc(b1-3)Gal(b1-4)GlcNAc(b1-3)Gal(b1-4)GlcNAc
How it was run: as §1

[23] = molecular target: Neu5Ac(a2-6)Gal(b1-4)GlcNAc(b1-3)Gal(b1-4)GlcNAc(b1-3)Gal(b1-4)GlcNAc(b1-2)Man(a1-3)[Neu5Ac(a2-6)Gal(b1-4)GlcNAc(b1-3)Gal(b1-4)GlcNAc(b1-3)Gal(b1-4)GlcNAc(b1-2)Man(a1-6)]GalNAc
How it was run: as §1

[24] = molecular target: Neu5Ac(a2-6)Gal(b1-4)GlcNAc(b1-3)Gal(b1-4)GlcNAc(b1-3)GalNAc
How it was run: as §1

[25] = molecular target: Neu5Ac(a2-6)Gal(b1-4)GlcNAc(b1-3)Gal(b1-4)GlcNAc(b1-3)[Neu5Ac(a2-6)Gal(b1-4)GlcNAc(b1-3)Gal(b1-4)GlcNAc(b1-6)]GalNAc
How it was run: as §1

[26] = molecular target: Neu5Ac(a2-6)Gal(b1-4)GlcNAc(b1-3)Gal(b1-4)GlcNAc(b1-6)[Gal(b1-3)]GalNAc
How it was run: as §1

[27] = molecular target: Neu5Ac(a2-6)Gal(b1-4)GlcNAc(b1-3)Gal(b1-4)[Fuc(a1-3)]GlcNAc(b1-3)Gal(b1-4)[Fuc(a1-3)]GlcNAc
How it was run: as §1

[28] = molecular target: Neu5Ac(a2-6)Gal(b1-4)GlcNAc(b1-3)GalNAc
How it was run: as §1

[29] = molecular target: Neu5Ac(a2-6)Gal(b1-4)GlcNAc(b1-3)[Neu5Ac(a2-6)Gal(b1-4)GlcNAc(b1-6)]GalNAc
How it was run: as §1

[30] = molecular target: Neu5Ac(a2-6)Gal(b1-4)GlcNAc(b1-6)GalNAc
How it was run: as §1

[31] = molecular target: Neu5Ac(a2-6)Gal(b1-4)GlcNAc(b1-6)[Gal(b1-3)GlcNAc(b1-3)]Gal(b1-4)Glc
How it was run: as §1

[32] = molecular target: Neu5Ac(a2-6)Gal(b1-4)GlcNAc(b1-6)[Gal(b1-3)]GalNAc
How it was run: as §1

[33] = molecular target: Neu5Ac(a2-6)Gal(b1-4)GlcNAc6S
How it was run: as §1

Neu5Ac(a2-6)GalNAc = molecular target: Neu5Ac(a2-6)GalNAc
How it was run: as §1

[34] = molecular target: Neu5Ac(a2-6)GalNAc(b1-4)GlcNAc
How it was run: as §1

[35] = molecular target: Neu5Ac(a2-6)GalNAc(b1-4)GlcNAc6S
How it was run: as §1

[36] = molecular target: Neu5Ac(a2-6)GlcNAc(b1-4)GlcNAc
How it was run: as §1

B1: ArathEULS3 TAP (Arabidopsis thaliana) (protein)
chain: IDENLYFQGGSMDEKTTGWRGGHVVEGLAGELEQLRARLEHHPQGQREPGGGGSLEITSLYKKAGFMEHHHQHHRHHQRDDGEDDRQSFGVPPPHVDAPPQPHGLYQSQPHFDPYAPTPQAPAPYRSETQFEPHAPPPYRSEPYFETPAPPPSFGHVSHVGHQSPNESYPPEHHRYGGYQQPSNSLLESHGDHSGVTHVAHHSSNQPQSSSGVYHKPDENRLPDNLAGLAGRATVKVYSKAEPNYNLTIRDGKVILAPADPSDEAQHWYKDEKYSTKVKDADGHPCFALVNKATGEAMKHSVGATHPVHLIRYVPDKLDESVLWTESKDFGDGYRTIRMVNNTRLNVDAYHGDSKSGGVRDGTTIVLWDWNKGDNQLWKIFPF
[1]
  glycan array binding signal (z-score): -1.27
Neu5Ac(a2-6)Gal(b1-4)Glc
  glycan array binding signal (z-score): 0.93
[2]
  glycan array binding signal (z-score): -0.612
[3]
  glycan array binding signal (z-score): 0.021
[4]
  glycan array binding signal (z-score): -0.281
[5]
  glycan array binding signal (z-score): -0.678
[6]
  glycan array binding signal (z-score): -0.353
[7]
  glycan array binding signal (z-score): -0.049
[8]
  glycan array binding signal (z-score): 0.811
[9]
  glycan array binding signal (z-score): -1.17
[10]
  glycan array binding signal (z-score): 0.502
[11]
  glycan array binding signal (z-score): -0.134
[12]
  glycan array binding signal (z-score): -0.879
[13]
  glycan array binding signal (z-score): -0.777
[14]
  glycan array binding signal (z-score): -0.597
[15]
  glycan array binding signal (z-score): 0.433
[16]
  glycan array binding signal (z-score): 0.386
[17]
  glycan array binding signal (z-score): -0.279
[18]
  glycan array binding signal (z-score): -0.647
[19]
  glycan array binding signal (z-score): -1.4
[20]
  glycan array binding signal (z-score): -0.709
[21]
  glycan array binding signal (z-score): 0.829
[22]
  glycan array binding signal (z-score): -1.21
[23]
  glycan array binding signal (z-score): 0.399
[24]
  glycan array binding signal (z-score): -0.472
[25]
  glycan array binding signal (z-score): 1.05
[26]
  glycan array binding signal (z-score): -0.634
[27]
  glycan array binding signal (z-score): -0.511
[28]
  glycan array binding signal (z-score): 0.12
[29]
  glycan array binding signal (z-score): 0.364
[30]
  glycan array binding signal (z-score): -0.914
[31]
  glycan array binding signal (z-score): 0.658
[32]
  glycan array binding signal (z-score): 0.429
[33]
  glycan array binding signal (z-score): -0.553
Neu5Ac(a2-6)GalNAc
  glycan array binding signal (z-score): -0.607
[34]
  glycan array binding signal (z-score): 0.004
[35]
  glycan array binding signal (z-score): -0.482
[36]
  glycan array binding signal (z-score): 1.18
